Values from PubChem BioAssay AID1508597 (Cure First, 2020)
This is one part, drawn at random, of about 2,100 reagents. 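Calls flag viability under 80% in either arm, not effects specific to rucaparib; the reference for percent is not stated.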 Entries without a mark were called inactive. A reagent listed more than once was tested more than once; the source does not tell the runs apart. Not stated in the record: the 100% reference.

- Purpose: 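Knock-downs altering ovarian cancer cell survival with or without PARP inhibitor rucaparib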 (primary screen)
- Cell system: human ovarian carcinoma lines grown from tumours: OCI-P5x (papillary serous) and OCI-C5x (clear cell)
- Knock-down reagent: siRNA pool against human genes, 1.25 pmol siRNA per well
- Timing: 72 h or 96 h, depending on the cell culture
- Conditions: rucaparib 20 µM (about IC30) or vehicle, present until read-out
- Detection: 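Luminescent ATP-based viability assay read 72 or 96 h after transfection, depending on culture, given as normalised percent viability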
- Reading the numbers: viability, normalised: higher = more viable cells remaining
- Rule for the call: 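a well counts as a hit if its normalised viability is under 80 percent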
- Meaning of the calls: active = viability under 80%; inactive = viability 80% or more

| gene symbol | rucaparib or vehicle | cell line | technical replicate | viability, normalised (%) |
| --- | --- | --- | --- | --- |
| DGKQ | Rucaparib | OCI-C5x (clear cell) | 1 | 51.2 (active) |
| DGKQ | Rucaparib | OCI-C5x (clear cell) | 2 | 58.7 (active) |
| DGKQ | Rucaparib | OCI-C5x (clear cell) | 3 | 49.5 (active) |
| DGKQ | Rucaparib | OCI-P5x (serous) | 1 | 45.8 (active) |
| DGKQ | Rucaparib | OCI-P5x (serous) | 2 | 56.3 (active) |
| DGKQ | Rucaparib | OCI-P5x (serous) | 3 | 51.3 (active) |
| DGKQ | Vehicle | OCI-C5x (clear cell) | 1 | 55.4 (active) |
| DGKQ | Vehicle | OCI-C5x (clear cell) | 2 | 77.1 (active) |
| DGKQ | Vehicle | OCI-C5x (clear cell) | 3 | 59.1 (active) |
| DGKQ | Vehicle | OCI-P5x (serous) | 1 | 62.8 (active) |
| DGKQ | Vehicle | OCI-P5x (serous) | 2 | 59.1 (active) |
| DGKQ | Vehicle | OCI-P5x (serous) | 3 | 69.6 (active) |
| BARD1 | Rucaparib | OCI-C5x (clear cell) | 1 | 45.1 (active) |
| BARD1 | Rucaparib | OCI-C5x (clear cell) | 2 | 60.9 (active) |
| BARD1 | Rucaparib | OCI-C5x (clear cell) | 3 | 65.1 (active) |
| BARD1 | Rucaparib | OCI-P5x (serous) | 1 | 58.2 (active) |
| BARD1 | Rucaparib | OCI-P5x (serous) | 2 | 56.5 (active) |
| BARD1 | Rucaparib | OCI-P5x (serous) | 3 | 64.4 (active) |
| BARD1 | Vehicle | OCI-C5x (clear cell) | 1 | 64.9 (active) |
| BARD1 | Vehicle | OCI-C5x (clear cell) | 2 | 58.1 (active) |
| BARD1 | Vehicle | OCI-C5x (clear cell) | 3 | 48.2 (active) |
| BARD1 | Vehicle | OCI-P5x (serous) | 1 | 78.3 (active) |
| BARD1 | Vehicle | OCI-P5x (serous) | 2 | 60 (active) |
| BARD1 | Vehicle | OCI-P5x (serous) | 3 | 75.9 (active) |
| BRAF | Rucaparib | OCI-C5x (clear cell) | 1 | 50.8 (active) |
| BRAF | Rucaparib | OCI-C5x (clear cell) | 2 | 34.7 (active) |
| BRAF | Rucaparib | OCI-C5x (clear cell) | 3 | 48.3 (active) |
| BRAF | Rucaparib | OCI-P5x (serous) | 1 | 79.3 (active) |
| BRAF | Rucaparib | OCI-P5x (serous) | 2 | 79.4 (active) |
| BRAF | Rucaparib | OCI-P5x (serous) | 3 | 53.6 (active) |
| BRAF | Vehicle | OCI-C5x (clear cell) | 1 | 50.8 (active) |
| BRAF | Vehicle | OCI-C5x (clear cell) | 2 | 53.5 (active) |
| BRAF | Vehicle | OCI-C5x (clear cell) | 3 | 67.3 (active) |
| BRAF | Vehicle | OCI-P5x (serous) | 1 | 56.4 (active) |
| BRAF | Vehicle | OCI-P5x (serous) | 2 | 58.8 (active) |
| BRAF | Vehicle | OCI-P5x (serous) | 3 | 52.6 (active) |
| SP140 | Rucaparib | OCI-C5x (clear cell) | 1 | 47.9 (active) |
| SP140 | Rucaparib | OCI-C5x (clear cell) | 2 | 34.1 (active) |
| SP140 | Rucaparib | OCI-C5x (clear cell) | 3 | 34 (active) |
| SP140 | Rucaparib | OCI-P5x (serous) | 1 | 46 (active) |
| SP140 | Rucaparib | OCI-P5x (serous) | 2 | 49.4 (active) |
| SP140 | Rucaparib | OCI-P5x (serous) | 3 | 45.4 (active) |
| SP140 | Vehicle | OCI-C5x (clear cell) | 1 | 36.2 (active) |
| SP140 | Vehicle | OCI-C5x (clear cell) | 2 | 39.4 (active) |
| SP140 | Vehicle | OCI-C5x (clear cell) | 3 | 37.1 (active) |
| SP140 | Vehicle | OCI-P5x (serous) | 1 | 59.1 (active) |
| SP140 | Vehicle | OCI-P5x (serous) | 2 | 48.9 (active) |
| SP140 | Vehicle | OCI-P5x (serous) | 3 | 61.6 (active) |
| NME7 | Rucaparib | OCI-C5x (clear cell) | 1 | 55.4 (active) |
| NME7 | Rucaparib | OCI-C5x (clear cell) | 1 | 72 (active) |
| NME7 | Rucaparib | OCI-C5x (clear cell) | 2 | 50.1 (active) |
| NME7 | Rucaparib | OCI-C5x (clear cell) | 2 | 49.1 (active) |
| NME7 | Rucaparib | OCI-C5x (clear cell) | 3 | 39.6 (active) |
| NME7 | Rucaparib | OCI-C5x (clear cell) | 3 | 48.5 (active) |
| NME7 | Rucaparib | OCI-P5x (serous) | 1 | 61.2 (active) |
| NME7 | Rucaparib | OCI-P5x (serous) | 1 | 85.6 |
| NME7 | Rucaparib | OCI-P5x (serous) | 2 | 70 (active) |
| NME7 | Rucaparib | OCI-P5x (serous) | 2 | 74.9 (active) |
| NME7 | Rucaparib | OCI-P5x (serous) | 3 | 69.9 (active) |
| NME7 | Rucaparib | OCI-P5x (serous) | 3 | 75.7 (active) |
| NME7 | Vehicle | OCI-C5x (clear cell) | 1 | 54.3 (active) |
| NME7 | Vehicle | OCI-C5x (clear cell) | 1 | 47.6 (active) |
| NME7 | Vehicle | OCI-C5x (clear cell) | 2 | 53 (active) |
| NME7 | Vehicle | OCI-C5x (clear cell) | 2 | 61.6 (active) |
| NME7 | Vehicle | OCI-C5x (clear cell) | 3 | 50 (active) |
| NME7 | Vehicle | OCI-C5x (clear cell) | 3 | 66.1 (active) |
| NME7 | Vehicle | OCI-P5x (serous) | 1 | 80.3 |
| NME7 | Vehicle | OCI-P5x (serous) | 1 | 71.1 (active) |
| NME7 | Vehicle | OCI-P5x (serous) | 2 | 78.3 (active) |
| NME7 | Vehicle | OCI-P5x (serous) | 2 | 69.5 (active) |
| NME7 | Vehicle | OCI-P5x (serous) | 3 | 77 (active) |
| NME7 | Vehicle | OCI-P5x (serous) | 3 | 58.6 (active) |
| SMARCD3 | Rucaparib | OCI-C5x (clear cell) | 1 | 36.5 (active) |
| SMARCD3 | Rucaparib | OCI-C5x (clear cell) | 2 | 32 (active) |
| SMARCD3 | Rucaparib | OCI-C5x (clear cell) | 3 | 26.1 (active) |
| SMARCD3 | Rucaparib | OCI-P5x (serous) | 1 | 54.5 (active) |
| SMARCD3 | Rucaparib | OCI-P5x (serous) | 2 | 51.7 (active) |
| SMARCD3 | Rucaparib | OCI-P5x (serous) | 3 | 52.1 (active) |
| SMARCD3 | Vehicle | OCI-C5x (clear cell) | 1 | 36 (active) |
| SMARCD3 | Vehicle | OCI-C5x (clear cell) | 2 | 22.5 (active) |
| SMARCD3 | Vehicle | OCI-C5x (clear cell) | 3 | 29.9 (active) |
| SMARCD3 | Vehicle | OCI-P5x (serous) | 1 | 59.5 (active) |
| SMARCD3 | Vehicle | OCI-P5x (serous) | 2 | 59.6 (active) |
| SMARCD3 | Vehicle | OCI-P5x (serous) | 3 | 99.1 |

A few values from the entries so far:
Under “viability, normalised (%)”, DGKQ, rucaparib or vehicle Vehicle, cell line OCI-C5x (clear cell), technical replicate 3 has 59.1 (active)
For “viability, normalised (%)”, DGKQ, rucaparib or vehicle Vehicle, cell line OCI-P5x (serous), technical replicate 3 shows 69.6 (active)
Result for SP140, rucaparib or vehicle Rucaparib, cell line OCI-P5x (serous), technical replicate 1 under “viability, normalised (%)”: 46 (active)
Result for SP140, rucaparib or vehicle Rucaparib, cell line OCI-C5x (clear cell), technical replicate 3 in “viability, normalised (%)”: 34 (active)
SP140, rucaparib or vehicle Vehicle, cell line OCI-C5x (clear cell), technical replicate 2, viability, normalised (%) → 39.4 (active)
SP140, rucaparib or vehicle Rucaparib, cell line OCI-C5x (clear cell), technical replicate 1, viability, normalised (%) → 47.9 (active)
